According to PubChem BioAssay AID624162 (National Center for Advancing Translational Sciences (NCATS), 2012):
The shares of active, inactive and inconclusive entries below differ from those in the screen. Where the call is inconclusive, the potency comes from a doubtful curve fit. Calls of active or inactive are those of the source. Calls come from the whole dose curve; as a rule, active = well fitted inhibition curve with a large enough effect; inconclusive = small, poorly fitted or top-dose-only effect; inactive = no such curve, though single readings can be large or run the other way.

Sequences of proteins named here, by UniProt entry; tags and fusion partners are left off.
UniProt Q03164, whole entry, looked up: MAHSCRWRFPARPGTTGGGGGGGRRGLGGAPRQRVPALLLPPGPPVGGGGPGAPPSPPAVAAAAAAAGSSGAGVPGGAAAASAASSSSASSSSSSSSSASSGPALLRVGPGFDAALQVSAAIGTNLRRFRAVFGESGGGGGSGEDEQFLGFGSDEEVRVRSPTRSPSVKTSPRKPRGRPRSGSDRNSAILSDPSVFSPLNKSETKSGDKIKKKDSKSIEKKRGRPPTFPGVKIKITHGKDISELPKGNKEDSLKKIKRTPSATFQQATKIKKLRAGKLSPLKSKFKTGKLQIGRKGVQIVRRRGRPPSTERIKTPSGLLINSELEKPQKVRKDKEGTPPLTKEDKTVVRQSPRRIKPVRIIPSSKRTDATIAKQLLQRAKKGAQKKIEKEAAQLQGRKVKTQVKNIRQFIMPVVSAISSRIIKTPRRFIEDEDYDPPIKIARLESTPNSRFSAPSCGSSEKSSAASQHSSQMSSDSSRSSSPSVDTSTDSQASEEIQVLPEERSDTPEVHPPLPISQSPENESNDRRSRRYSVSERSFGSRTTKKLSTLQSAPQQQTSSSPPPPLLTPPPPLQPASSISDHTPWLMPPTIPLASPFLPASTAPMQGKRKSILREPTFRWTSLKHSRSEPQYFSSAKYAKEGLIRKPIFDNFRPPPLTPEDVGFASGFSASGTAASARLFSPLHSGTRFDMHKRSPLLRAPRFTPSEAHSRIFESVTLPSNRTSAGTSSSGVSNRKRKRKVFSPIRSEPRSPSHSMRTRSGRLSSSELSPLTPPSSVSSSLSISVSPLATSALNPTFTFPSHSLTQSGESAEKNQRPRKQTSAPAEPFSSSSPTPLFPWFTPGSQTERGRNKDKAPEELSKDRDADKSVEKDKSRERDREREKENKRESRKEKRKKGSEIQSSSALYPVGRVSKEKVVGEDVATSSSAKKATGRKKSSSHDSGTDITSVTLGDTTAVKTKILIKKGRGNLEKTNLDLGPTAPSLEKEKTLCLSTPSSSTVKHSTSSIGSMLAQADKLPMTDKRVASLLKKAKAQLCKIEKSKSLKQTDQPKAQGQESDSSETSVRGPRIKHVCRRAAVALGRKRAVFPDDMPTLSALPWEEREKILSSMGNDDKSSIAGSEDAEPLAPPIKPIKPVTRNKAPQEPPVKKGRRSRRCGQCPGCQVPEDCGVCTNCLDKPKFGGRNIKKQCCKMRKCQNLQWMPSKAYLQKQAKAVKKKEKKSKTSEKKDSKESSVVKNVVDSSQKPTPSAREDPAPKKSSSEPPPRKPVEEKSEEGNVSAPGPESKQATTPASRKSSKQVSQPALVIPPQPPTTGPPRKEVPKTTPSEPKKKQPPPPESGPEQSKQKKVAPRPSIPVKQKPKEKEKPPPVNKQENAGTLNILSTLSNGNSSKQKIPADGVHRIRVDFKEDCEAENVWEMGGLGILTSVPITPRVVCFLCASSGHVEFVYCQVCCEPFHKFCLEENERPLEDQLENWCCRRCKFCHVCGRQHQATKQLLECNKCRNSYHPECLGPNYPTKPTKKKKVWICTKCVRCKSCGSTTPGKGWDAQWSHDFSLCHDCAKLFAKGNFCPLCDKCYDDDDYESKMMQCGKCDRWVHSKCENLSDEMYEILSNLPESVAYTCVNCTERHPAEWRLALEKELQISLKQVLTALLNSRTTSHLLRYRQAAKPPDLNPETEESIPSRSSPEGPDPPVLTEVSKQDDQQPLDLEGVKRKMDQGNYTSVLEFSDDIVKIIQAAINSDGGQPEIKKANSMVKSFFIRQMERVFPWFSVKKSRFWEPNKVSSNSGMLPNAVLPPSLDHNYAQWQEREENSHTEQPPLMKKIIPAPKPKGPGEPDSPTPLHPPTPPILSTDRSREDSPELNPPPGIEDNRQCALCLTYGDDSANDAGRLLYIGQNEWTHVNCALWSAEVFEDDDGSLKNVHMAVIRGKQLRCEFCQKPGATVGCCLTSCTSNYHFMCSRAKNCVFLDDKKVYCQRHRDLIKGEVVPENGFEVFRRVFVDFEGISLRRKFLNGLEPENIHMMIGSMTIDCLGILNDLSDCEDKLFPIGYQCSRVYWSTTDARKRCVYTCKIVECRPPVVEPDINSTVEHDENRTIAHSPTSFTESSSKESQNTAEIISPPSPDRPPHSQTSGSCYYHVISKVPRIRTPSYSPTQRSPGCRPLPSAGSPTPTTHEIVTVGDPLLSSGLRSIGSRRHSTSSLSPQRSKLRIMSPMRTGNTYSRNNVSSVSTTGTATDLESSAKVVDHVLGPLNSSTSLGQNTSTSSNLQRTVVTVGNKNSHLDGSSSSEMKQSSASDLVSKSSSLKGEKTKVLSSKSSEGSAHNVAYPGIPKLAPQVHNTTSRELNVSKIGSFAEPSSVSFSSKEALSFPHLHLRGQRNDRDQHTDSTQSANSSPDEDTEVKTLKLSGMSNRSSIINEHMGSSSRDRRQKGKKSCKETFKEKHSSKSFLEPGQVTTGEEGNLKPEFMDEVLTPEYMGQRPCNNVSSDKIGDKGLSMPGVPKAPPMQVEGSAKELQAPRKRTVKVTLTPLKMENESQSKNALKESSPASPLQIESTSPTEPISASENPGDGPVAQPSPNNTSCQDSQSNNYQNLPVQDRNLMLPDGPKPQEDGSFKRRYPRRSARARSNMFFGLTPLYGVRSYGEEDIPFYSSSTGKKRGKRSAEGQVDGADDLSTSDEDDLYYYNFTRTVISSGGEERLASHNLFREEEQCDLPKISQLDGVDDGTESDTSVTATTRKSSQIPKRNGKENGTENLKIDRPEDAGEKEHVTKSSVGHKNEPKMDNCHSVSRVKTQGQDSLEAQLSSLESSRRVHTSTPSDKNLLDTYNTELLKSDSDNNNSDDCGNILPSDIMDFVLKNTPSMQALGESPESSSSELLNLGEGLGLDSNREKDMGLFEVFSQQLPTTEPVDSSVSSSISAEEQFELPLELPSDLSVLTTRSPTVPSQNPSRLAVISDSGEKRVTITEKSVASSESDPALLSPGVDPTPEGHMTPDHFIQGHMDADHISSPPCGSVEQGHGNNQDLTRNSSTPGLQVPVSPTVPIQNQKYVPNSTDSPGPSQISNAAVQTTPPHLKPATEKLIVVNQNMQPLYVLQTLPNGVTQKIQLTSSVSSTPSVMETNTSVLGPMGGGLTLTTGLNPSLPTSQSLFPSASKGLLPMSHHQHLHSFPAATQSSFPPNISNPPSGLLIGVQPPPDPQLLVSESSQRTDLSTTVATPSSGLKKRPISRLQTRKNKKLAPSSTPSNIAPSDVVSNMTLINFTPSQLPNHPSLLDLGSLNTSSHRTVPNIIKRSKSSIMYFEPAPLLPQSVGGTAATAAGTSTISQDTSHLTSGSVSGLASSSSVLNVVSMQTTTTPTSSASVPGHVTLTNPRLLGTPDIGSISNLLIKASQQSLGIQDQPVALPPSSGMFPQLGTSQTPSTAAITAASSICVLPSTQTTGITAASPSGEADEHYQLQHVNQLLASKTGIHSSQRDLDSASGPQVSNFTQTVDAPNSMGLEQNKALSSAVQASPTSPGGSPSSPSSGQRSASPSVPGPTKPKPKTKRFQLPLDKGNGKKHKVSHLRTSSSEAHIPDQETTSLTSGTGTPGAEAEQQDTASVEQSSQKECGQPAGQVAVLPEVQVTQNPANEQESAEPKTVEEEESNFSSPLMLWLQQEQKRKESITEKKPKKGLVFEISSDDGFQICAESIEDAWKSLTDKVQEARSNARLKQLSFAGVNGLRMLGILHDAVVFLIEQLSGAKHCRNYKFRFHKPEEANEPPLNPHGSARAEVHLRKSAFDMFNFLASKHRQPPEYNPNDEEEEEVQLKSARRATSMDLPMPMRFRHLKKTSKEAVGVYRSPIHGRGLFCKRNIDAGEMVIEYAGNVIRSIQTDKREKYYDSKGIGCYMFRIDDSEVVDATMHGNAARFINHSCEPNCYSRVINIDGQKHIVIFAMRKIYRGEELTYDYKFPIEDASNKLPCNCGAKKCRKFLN

Each molecule was assayed against Histone-lysine N-methyltransferase 2A (Homo sapiens) (UniProt Q03164) (assay: qHTS Fluorescence Polarization (FP) Assay for Inhibitors of MLL CXXC domain - DNA interaction: HTRF Assay). Details: MLL CXXC-DNA binding, biochemical; series mostly up to 172 µM; activity change, negative = inhibition: at the top concentration.
Source text: The MLL (Mixed Lineage Luekemia) gene is involved in chromosomal translocation that results in either acute lymphoid leukemia (ALL) or acute myeloid leukemia (AML). Chromasomal translocation of MLL gene is responsible for the fusion of N-terminal MLL to more than 60 different partner genes in frame. Many of the MLL partner genes contain transcription activation domains or function as transcriptional activators. Despite the heterogeneity of fusion partners, the N-terminus of MLL fusion proteins always consists of the N-terminal menin binding motif and the CXXC domain. The MLL-CXXC domain specifically recognizes unmethylated CpG sequences of the HOX-A gene. Disruption of the MLL-CXXC and HOX-A gene interaction leads to down regulation of HOX-A gene expression and may potentially reverse leukemogenesis. We have miniaturized and optimized an in-vitro assay to screen for inhibitors of the MLL-CXXC domain and HOX-A DNA interaction, which could have utility in MLL fusion leukemias.
This is a hit validation assay that tests this hits identified in the primary screen in this secondary screen, using an HTRF a read-out.
NIH Molecular Libraries Probe Production Network [MLPCN]
NIH Chemical Genomics Center [NCGC]
PI Name: John Bushweller, University of Virgina
One microliter of 7microM GST-MLL-CXXC solution prepared in assay buffer (50 mM TRIS-HCl pH 7.5, 50 mM NaCl, 1 mM DTT, 0.05% BSA) was dispesed into a 1536 well plate. Compound solution and unlabeled HOX-A9 was tranferred into the assay plate using the Kalypsys 1536-pin tool and incubated at room temperature for 5 min. One microL of 50nM Biotinylated-HOX-A9 solution prepared in assay buffer was dispensed into the assay plate; centrifuge for 30 seconds at 1000 RPM; and incubated for 30 min at room temperature. Next, 3 microL/well detection reagent mixture of 2.8 nM Eu3+-Cryptate-anti-GST-AB and 100 nM Streptavidin linked XL665 (Cisbio, MA) was added. RT-FRET read was taken after 60min of room temp incubation using the PerkinElmer Envision plate reader equipped with Eu3+ HTRF optimized filter set; EX 337nm / EM […].
% is set by controls: 0 for no effect and ±100 for the full control effect.
Throughout, for activity change, negative = inhibition: nearly all actives have a fitted effect of over 80% in size.

SMILES | Potency | activity change, negative = inhibition
Cc1[nH][nH]c(=O)c1C(c1ccc(-c2ccc(C(=O)O)cc2)o1)c1c(C)[nH][nH]c1=O | inconclusive: 96.8 µM [inhibitor, single point] | 
N#C/C(=C\c1cccs1)C(=O)c1ccccc1Cl | inconclusive: 61.1 µM [inhibitor, partial curve] | 
O=C(O)C1=CC(=C(c2ccc(O)c(C(=O)O)c2)c2ccc(O)c(C(=O)O)c2)C=CC1=O | active: 2.43 µM | 
O=C(CC(C(=O)N1CCc2ccccc21)n1ccnc1)N1CCc2ccccc2C1 (centres undefined) |  | inactive: 2.12%
O=C1NN(c2ccccc2)C(=O)/C1=C/c1ccc(-c2ccc(C(=O)O)cc2)o1 | inconclusive: 193 µM [inhibitor, single point] | 
CCOC(=O)C(C(=O)OCC)c1cc(Br)c2noc3c2c1C(=O)c1ccccc1-3 | inconclusive: 193 µM [inhibitor, partial curve] | 
CN(C)C1=C(Cl)C(=O)N(c2ccc(Cl)c(Cl)c2)C1=O | inconclusive: 611 µM [inhibitor, partial curve, poor fit] | 
O=[N+]([O-])c1cccc(-c2cn3nc(-c4ccccc4)c(-c4ccccc4)nc3n2)c1 |  | inactive: 8.92%
CC(C)Cn1c(SCC(=O)NCc2ccco2)nnc1-c1ccncc1 |  | inactive: -0.349%
C/C(=N\Nc1nc2ccccc2c(=O)n1O)c1ccco1 | inconclusive: 306 µM [inhibitor, partial curve, poor fit] | 
COc1cc(/C=C2/C(=O)c3cccc([N+](=O)[O-])c3C2=O)c(Br)cc1O | inconclusive: 38.5 µM [inhibitor, single point] | 
O=C(O)CN1C(=O)/C(=C\c2cccc(OCc3ccc(Cl)cc3Cl)c2)SC1=S |  | inactive: -103%
O=c1ccc2[n+]([O-])c3ccc(O)cc3oc-2c1 | inconclusive: 153 µM [inhibitor, single point] | 
C#CCOc1ccc(/C=C2/C(=O)N(c3cccc(C(=O)O)c3)N=C2C)cc1OC | active: 96.8 µM | 
O=c1[nH]c(S)c(/C=C2\C=Nc3ccccc32)s1 | inconclusive: 193 µM [inhibitor, single point] | 
Nc1ccc2cc3ccc(N)cc3nc2c1 | inconclusive: 193 µM [inhibitor, single point] | 
CC(C)OC(=O)CC(=O)c1sc2nc3c(cc2c1N)CN(C)CC3 | inconclusive: 306 µM [inhibitor, single point] | 
O=C(CSc1nc2ccccc2c(=O)n1Cc1ccc(F)cc1)NCc1cccs1 |  | inactive: 0.891%
O=c1nc2c(O)cccn2c2c1c(=O)[nH]c1ccccc12 | inconclusive: 122 µM [inhibitor, single point] | 
CCc1sc(C(C2C(=O)CC(C)(C)CC2=O)C2C(=O)CC(C)(C)CC2=O)cc1[N+](=O)[O-] | active: 30.6 µM | 
O=C1OC(/C(=C\Nc2ccc(F)cc2F)[N+](=O)[O-])c2ccccc21 (centres undefined) |  | inactive: -3.05%
Cc1ccccc1S(=O)(=O)NC1OC(=O)C(Cl)=C1Cl (centres undefined) | inconclusive: 61.1 µM [inhibitor, partial curve] | 
O=C(Nc1cc(C(=O)Nc2ccc(S(=O)(=O)O)cc2S(=O)(=O)O)cc(C(=O)Nc2ccc(S(=O)(=O)O)cc2S(=O)(=O)O)c1)Nc1cc(C(=O)Nc2ccc(S(=O)(=O)O)cc2S(=O)(=O)O)cc(C(=O)Nc2ccc(S(=O)(=O)O)cc2S(=O)(=O)O)c1 | active: 3.06 µM | 
CSC1=C(C#N)C(=O)NC(c2ccccc2O)S1 (centres undefined) | inconclusive: 306 µM [inhibitor, single point] | 

Record cards (already shown):
O=c1ccc2[n+]([O-])c3ccc(O)cc3oc-2c1 is listed as Potency: inconclusive: 153 µM [inhibitor, single point]
O=C(O)C1=CC(=C(c2ccc(O)c(C(=O)O)c2)c2ccc(O)c(C(=O)O)c2)C=CC1=O is listed as Potency: active: 2.43 µM
